Experimental data: PubChem BioAssay AID1347423 (Functional Genomics Laboratory (NCATS/FGL), 2020)
Among all 52,000 sequences or so, about 210 (0.4%) were called active.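 The calls were made as follows: active = gene whose silencing raises cell survival under the drug, median off-target-corrected z-score across its silencing RNAs 2 or more; inactive = the rest.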 This is one part of the list.

Assay: Resistance to Poly (ADP-Ribose) Polymerase inhibitor: Gene Identification via Genome-wide siRNA Screen
Details: mouse BRCA2 R2336H ES cells, olaparib, CellTiter-Glo viability; stronger effect = higher value
Outline: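 Genome-wide siRNA screen (3 siRNAs/gene, 20 nM) in mouse ES cells carrying hypomorphic BRCA2 R2336H; olaparib 500 nM added 48 h post-transfection, CellTiter-Glo viability 72 h later. Normalized to plate-median negative control; MAD z-scores, gene median, seed-adjusted.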
In the case of GCCACCCUUCUGGAGAUUCTT against MGC107702, the z-score is reported as inactive: -0.916. In the case of “GGAGCUGUACUCCAAGAAGTT against 1810007P19Rik”, the z-score is reported as inactive: -2.08. In the case of “CGAACCAUAGCUAGCUCCATT against 4931406O17Rik”, the z-score is reported as inactive: -0.172. In the case of GGUUGCUACUUUUGGCAGGTT against Dusp7, the z-score is reported as inactive: 1.12. With “CCUAUCUUGUCCGGUUUACTT against 2810410C14Rik” the z-score was inactive: -0.969. For GGACUAUUUGGAAACCUCCTT against Olfr1366, the z-score was inactive: 0.851. For GGUUGAGAAGAAGAAUGGATT against Thap4, the z-score was inactive: -3.01. For GGAAAAUACACAGAGAUAUTT against Stk3, the z-score was inactive: 1.4. For GGAAAUUGUUGUUUCCCGUTT against Sf3b3, the z-score was inactive: -3.12. For “GUUCUCAAGUAUCCCAGGCTT against 1110006O24Rik”, the z-score was inactive: -0.262. For GCGAACCCAUCAGUGAAGUTT against Dpp10, the z-score was inactive: 0.566. For “CCUGAAUUGUUCCUUCCAUTT against G630024C07Rik”, the z-score was inactive: -1.99. For GCAAGUAGUUAGCUCAGGGTT against Gabpb1, the z-score was inactive: -1.79. In the case of GCUGGAUCAGCUAGCAAAATT against Cpa1, the z-score is reported as inactive: 2.56. With GCCAGCUAAAAUAGAAAAATT against Vldlr the z-score was inactive: -0.161. For GCAUUAAGGCACAAACAAATT against Myo1b, the z-score was inactive: 0.993. For CGCCUUGCUAGUUUAAUGATT against Matr3, the z-score was inactive: 0.451. With GGAUAACCGUAUUAAUUUCTT against Gm2a the z-score was inactive: -0.188. With CGAAACCUCUAAGAAGAUATT against Pole the z-score was inactive: 0.211. With GGUAAUUUCUUACCAAGGATT against Gabpa the z-score was inactive: -2.68. In the case of GGAAAUCAUAUAUGCAAAGTT against Dpp4, the z-score is reported as inactive: 0.914. For UGACACCUUCUCAUUGGCCTT against Tceb3bp1, the z-score was inactive: -0.434. In the case of GGAUGUUGUUUGGGCUUUUTT against Olfr140, the z-score is reported as inactive: -0.198. For “GGCACAAUGGACUCAGUCATT against 2410129E14Rik”, the z-score was inactive: -0.494. For GCUCUAAGGAACAUGUAAATT against Recql, the z-score was inactive: -0.919. In the case of “GGAGAUUUUGAUGAGCAGATT against D930035B09Rik”, the z-score is reported as inactive: 0.894. In the case of GGAAAAUUUAUGCAGUGGATT against Carm1, the z-score is reported as inactive: -1.36. With GCAUCUACCACACAAUGGCTT against Wdfy1 the z-score was inactive: -1.98. With GGUCUUUUUUCCUUUGUUCTT against Ogg1 the z-score was inactive: -0.474. With GGUUGAGCUGAAGAAUGGATT against Prss11 the z-score was inactive: -1.89. For GGUCAUGUCCGAGUACAACTT against Stx1a, the z-score was inactive: 1.41. With GCUGCCUCUAUUUCAGUUCTT against Fbxo27 the z-score was inactive: 0.759. With GGAAACUGCAUUCAAGCCATT against Apod the z-score was inactive: 1.19. For “GGUUCAACUCUCUUUUUGATT against 4930417M19Rik”, the z-score was inactive: 0.193. For GGAAUAUUUUGCUUGUGUGTT against Dnmt3a, the z-score was inactive: 0.841. With “GCAUCAAAAUCGGUUUCUGTT against 4930526D03Rik” the z-score was inactive: -0.28. With GGCCUGCUUUGUUGUAGUUTT against Olfr830 the z-score was inactive: -0.135. With GGAUAUUCCCAAUUACAAGTT against Plxna3 the z-score was inactive: -0.0571. In the case of CCCAGAGUGAUUACUUCAGTT against Klhl15, the z-score is reported as inactive: -1.68. For GCAGUGAUAGCUUCAAUCUTT against Oasl2, the z-score was inactive: 0.417. For GGGCCAAAAUGGUUCCAGCTT against Cyp4b1, the z-score was inactive: 0.343. In the case of CCAGAUAUCUGGGUACUUUTT against Zfp353, the z-score is reported as inactive: -0.0571. In the case of GGAGAAGAAAGCAAAAACCTT against Ing1, the z-score is reported as inactive: 0.092. In the case of GCAUCAUCACCACCAUCACTT against Pou3f3, the z-score is reported as inactive: 0.948. With “GCCAUAUAUCUGCUAUCAUTT against A330019N05Rik” the z-score was inactive: -0.0172. In the case of GGAGAAGAGAGGUUGGACCTT against Gal, the z-score is reported as inactive: 0.00361. With GGUAUGAUGGGAAAUUUUUTT against Tmod2 the z-score was inactive: 1.24. In the case of GGUUCCUCUCAAAAUUCAATT against Gprc6a, the z-score is reported as inactive: 0.772. With GCCCGCUCUCGGAUUUUGATT against Htr1b the z-score was active: 2.87. For CCAGUACAUUGAGCUGGAUTT against Rya3, the z-score was inactive: 2.85. For “GCCGCACGUUUUUGAGUUGTT against B930052A04Rik”, the z-score was inactive: 2.23. In the case of CCUUAUGUCUACAAUCAAATT against Plac1, the z-score is reported as inactive: -0.676. In the case of “GGACUUGGACCAAUAGAAGTT against 4933425O20Rik”, the z-score is reported as inactive: -0.717. In the case of “GCGUAGAAGACACUUAUAGTT against 2700069A02Rik”, the z-score is reported as inactive: -2.12. In the case of “CCAGAAUGUUACAUGCAGGTT against 4933425M15Rik”, the z-score is reported as inactive: -0.671. For CCAUACUUAUGCCAGCCUGTT against Tcfeb, the z-score was inactive: -0.681. In the case of “GGACCACUAAUUUCAAUGCTT against A730089K16Rik”, the z-score is reported as inactive: -0.377. In the case of GGACGGAAAGCUCAUCAUUTT against Gnb2, the z-score is reported as inactive: -2.07. In the case of GGAGUAGCUGAUCAAACCATT against Slc25a12, the z-score is reported as inactive: -0.973. In the case of GGAUGCCUUCGUCAUUCUATT against AW547365, the z-score is reported as inactive: 0.257. With GCUUACUCCAGCAUAUUUCTT against Qdpr the z-score was inactive: 0.753. With CGCAAGAGUUCCUUUUUUUTT against Sla the z-score was inactive: 0.733. With “GGAAAUAAUCCGCCCACGUTT against 4933425I22Rik” the z-score was inactive: -0.421. In the case of “GCUCAGCAGGAAAUAACAGTT against 2310015N07Rik”, the z-score is reported as inactive: 0.0484. For CCGCUACCUUUGAACGAAUTT against Ren1, the z-score was inactive: 0.282. In the case of “GCCUCUAGAAUGUAUGGAGTT against 1810073M12Rik”, the z-score is reported as inactive: -0.651. For CCCUGUGAAAGUGUCAUAUTT against Pigq, the z-score was inactive: -0.474. For CCACAGAACAAUUUUCACATT against Rnase11, the z-score was inactive: 0.418. For GGCACCACUGAUUUGAAUCTT against Arfrp2, the z-score was inactive: 1.72. For CCUUUACCAAUGUUGGCCCTT against Svs1, the z-score was inactive: 0.119. With GGUGCAGUUUCUCCUCUUUTT against Pla1a the z-score was inactive: -1.27. With CCAUUGAACAACUGUCCUATT against Prkcbp1 the z-score was inactive: 1.32. With GGAGUUUCUAGAACUCUCATT against Zcchc5 the z-score was inactive: 0.166. For GGGUCCUAAAAAUUCAAUUTT against Decr2, the z-score was inactive: 0.705. In the case of GGCUACUGGAGCAAGUUUATT against Apoc3, the z-score is reported as inactive: 0.557. In the case of CCUUCCUCGUGAUUCGCUATT against Lman2l, the z-score is reported as inactive: 2.11. In the case of GGUGAUGGUGUCCUAUAAATT against Hspa1l, the z-score is reported as inactive: -1.11. For GGCUGAUUAUAAACAUGACTT against Nrap, the z-score was inactive: 0.00719. With GCAGAUUUGACAUGGAAAATT against Zp2 the z-score was inactive: 2.08. In the case of GGGUGUCUUUCCUGUGUGATT against AW209059, the z-score is reported as inactive: 0.795. For GGUUUUGUGCCUUAACAGUTT against Abcc4, the z-score was inactive: 1.2. With GGAUAUUCCCAAGUCUUUATT against Cyp2e1 the z-score was inactive: 1.98. In the case of “GGUAGAAAAGAAUAUUGAGTT against 4930413O22Rik”, the z-score is reported as inactive: 1.45. In the case of “GCACAAGUCUAAACAGCUGTT against 5830467P10Rik”, the z-score is reported as inactive: -0.649. For “CCUUCUUGUGAAUUUACCUTT against B130003F20Rik”, the z-score was inactive: 0.516. For CCACUCAAGAUCGAUACCUTT against Fgd1, the z-score was inactive: -0.28. For GCCUAAGCCUACCAAACGATT against C77668, the z-score was inactive: -1.19. With “GGUUUUAAAGAAGACGGUATT against 1110004E09Rik” the z-score was inactive: -2.08. With “GCGAUCGAUGUCGUACUCUTT against 2610207I05Rik” the z-score was inactive: 1.42. With GGAGACGAGAAACAAACCCTT against Diap2 the z-score was inactive: 0.952. For GCGGUUAGCACAAUGUGAATT against Ppp2cb, the z-score was inactive: -0.0473. In the case of GCCCAUUAUGCAAGAAUAATT against Gsbs, the z-score is reported as inactive: -2.28. For “GGGACUUUGGGAAGUGAUGTT against 2700023J09Rik”, the z-score was inactive: -1.05. With GGAUUGUGAUUUUCAUUGATT against P2y5 the z-score was inactive: -0.597. For GCUGAAGUUCGUACCCUACTT against Osbp2, the z-score was inactive: -0.533. For GCUUUUAUUGGCCACCCUGTT against BC026996, the z-score was inactive: 0.0955. With GGGAAAACCCUUUAUUCAGTT against Tmod4 the z-score was inactive: 0.627. With GGAAGCCUAGUUUUUUUAATT against Csnk2a1 the z-score was inactive: 0.629. In the case of “GGGUAUAUUUCCUUCCAGCTT against 6330411N01Rik”, the z-score is reported as inactive: 1.48. For GGCUCUUUGCGAAAAUGGATT against Rnaseh2a, the z-score was inactive: -0.522. For GGUGCAUAUGAGGUAUAUUTT against Nt5e, the z-score was inactive: -0.321. In the case of GGGUGAGCAGUACAUUCAATT against BC026778, the z-score is reported as inactive: -0.364. With “CCUGACUUGCCAUGUAAACTT against F830045P16Rik” the z-score was inactive: 0.556.
